Data as given in publication PMC12177071, “Divergence in a eukaryotic transcription factor’s co-TF dependence involves multiple intrinsically disordered regions”.
These are yes or no findings as the source states them, for the method shown. Some binding calls cover weakened binding; strength is not graded here.

Target: T1, ScPho2 Pho4int (aa 112–407) (S. cerevisiae) (UniProt P07269)
T1 sequence: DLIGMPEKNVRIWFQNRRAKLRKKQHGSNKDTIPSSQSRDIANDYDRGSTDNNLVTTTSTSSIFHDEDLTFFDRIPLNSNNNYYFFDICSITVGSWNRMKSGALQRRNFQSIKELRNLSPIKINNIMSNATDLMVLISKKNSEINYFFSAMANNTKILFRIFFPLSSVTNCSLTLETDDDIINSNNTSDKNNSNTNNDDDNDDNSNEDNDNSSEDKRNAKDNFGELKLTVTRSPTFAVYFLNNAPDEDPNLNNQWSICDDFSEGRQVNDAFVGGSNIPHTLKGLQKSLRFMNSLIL
Experiment: two-hybrid; Gal4 AD and Gal4 DBD fusions (pGAD-C3, pGBD-C3) co-transformed into a gal4Δ gal80Δ S. cerevisiae strain; patches grown at 30 °C for 24 h, replica plated onto SD -leu -trp -ade -his, imaged after 45–50 h; two independent transformants

B1: ScPho4ΔDBD (aa 2–250) (domain or fragment, UniProt P07270 2-250)
chain: GRTTSEGIHGFVDDLEPKSSILDKVGDFITVNTKRHDGREDFNEQNDELNSQENHNSSENGNENENEQDSLALDDLDRAFELVEGMDMDWMMPSHAHHSPATTATIKPRLLYSPLIHTQSAVPVTISPNLVATATSTTSANKVTKNKSNSSPYLNKRRGKPGPDSATSLFELPDSVIPTPKPKPKPKQYPKVILPSNSTRRVSPVTAKTSSSAEGVVVASESPVIAPHGSSHSRSLSKRRSSGALVDDD
  binding: binds
